Our source for the TEAD-luciferase reporter activity values is the supplement of paper PMC10735217.

Counter-ions that a name gives are not always drawn. Some of the results follow. Single values are uncertain here, since repeats match poorly.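 The human kidney-derived cells carry a stably integrated construct of eight TEAD-binding elements driving luciferase, read by luminescence in a drug-repurposing library screen. A compound counts as a hit when its signal is more than five robust Z scores above the plate mean.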

In this assay the test system is HEK293A TEAD-LUC reporter. The assay is described as follows: TEAD-luciferase reporter activity (YAP activation), robust Z score vs plate; higher = stronger YAP/TEAD activation. The conditions noted are these: 24 h. In general terms: In a reporter assay the amount or activity of a reporter protein is the signal.

Consider `CNCC(=O)c1ccccc1`, for which the TEAD-luciferase reporter activity was inactive: -1.31 (compound concentration: 200 nM), inactive: -1.77 (compound concentration: 2 uM) and inactive: -1.13 (compound concentration: 10 uM).

Take `CC(NC(C)(C)C)C(=O)c1cccc(Cl)c1` (centres undefined) [bupropion SR]: the TEAD-luciferase reporter activity (compound concentration: 2 uM) was inactive: -0.868.

On to `CC(NC(C)(C)C)C(=O)c1cccc(Cl)c1` (centres undefined), for which the TEAD-luciferase reporter activity is, setting by setting: (compound concentration: 200 nM) inactive: -0.5; (compound concentration: 10 uM) inactive: -2.31.

As to `CC12Cc3conc3CC1CCC1C2CCC2(C)C1CCC2(C)O` (centres undefined), the TEAD-luciferase reporter activity runs as follows: (compound concentration: 200 nM) inactive: -0.231; (compound concentration: 2 uM) inactive: -1.15; (compound concentration: 10 uM) inactive: -0.475.

For the molecule `C#CCN(C)[C@H](C)Cc1ccc(F)cc1` [parafluoro-selegiline], the TEAD-luciferase reporter activity by setting is: (compound concentration: 200 nM) inactive: -1.16; (compound concentration: 2 uM) inactive: 1.88; (compound concentration: 10 uM) inactive: 3.41.

Take `Cc1cc(O)c2c(=O)c3c(O)cc(O)c4c5c(O)cc(O)c6c(=O)c7c(O)cc(C)c8c1c2c(c34)c(c78)c65` [hypericin]: the TEAD-luciferase reporter activity (compound concentration: 200 nM) was inactive: -0.649, the TEAD-luciferase reporter activity (compound concentration: 2 uM) is inactive: -0.0221 and the TEAD-luciferase reporter activity (compound concentration: 10 uM) was inactive: -0.78.

As for `CCCCNC(=O)OCC#CI`, the TEAD-luciferase reporter activity was inactive: -0.0611 (compound concentration: 200 nM), inactive: 0.129 (compound concentration: 2 uM) and inactive: -0.801 (compound concentration: 10 uM).

As to `O=C1CN=C(c2ccccc2)c2cc(Cl)ccc2N1CC1CC1` [Prazepam], the TEAD-luciferase reporter activity was active: 12.5 (compound concentration: 200 nM) and active: 6.28 (compound concentration: 10 uM).

Turning to `CN1C(=O)CN=C(C2=CCCCC2)c2cc([N+](=O)[O-])ccc21`, the TEAD-luciferase reporter activity is, setting by setting: (compound concentration: 200 nM) inactive: -0.927; (compound concentration: 2 uM) inactive: -0.917; (compound concentration: 10 uM) inactive: 0.516.

With `CC(O)CCC(=O)c1ccoc1` (centres undefined), the TEAD-luciferase reporter activity is, setting by setting: (compound concentration: 200 nM) inactive: -1.38; (compound concentration: 2 uM) inactive: 0.166; (compound concentration: 10 uM) inactive: 1.33.

As for `O=C1c2ccccc2C(=O)C1C(=O)C(c1ccccc1)c1ccccc1`, the TEAD-luciferase reporter activity runs as follows: (compound concentration: 200 nM) inactive: -0.233; (compound concentration: 2 uM) inactive: -2.1; (compound concentration: 10 uM) inactive: 1.03.

With `O=NN1CCCCC1c1cccnc1` (centres undefined), the TEAD-luciferase reporter activity is, setting by setting: (compound concentration: 200 nM) inactive: -0.493; (compound concentration: 2 uM) inactive: -0.553; (compound concentration: 10 uM) inactive: 2.49.

In the case of `C[C@@H]1N=C(c2ccccc2Cl)c2cc([N+](=O)[O-])ccc2NC1=O`, the TEAD-luciferase reporter activity by setting is: (compound concentration: 200 nM) inactive: 2.48; (compound concentration: 2 uM) inactive: -0.597; (compound concentration: 10 uM) inactive: -0.378.

Take `CN1C[C@H](C(=O)N(CCO)CCO)CC2c3cccc4[nH]cc(c34)C[C@H]21` (some centres undefined): the TEAD-luciferase reporter activity by setting is: (compound concentration: 200 nM) inactive: -0.796; (compound concentration: 2 uM) inactive: -0.619; (compound concentration: 10 uM) inactive: -1.16.

`CN1C[C@@]2(C(=O)O)C(=O)[C@@](C(=O)O)(C1)[C@@H](c1ccccn1)N(C)[C@H]2c1ccccn1`: the TEAD-luciferase reporter activity was inactive: -0.81 (compound concentration: 200 nM), inactive: 0.0727 (compound concentration: 2 uM) and inactive: -1.36 (compound concentration: 10 uM).

As for `CC(=O)N1C[C@@H](CCN2CC=C(c3c[nH]c4cc(Cl)ccc34)CC2)c2ccccc21`, the TEAD-luciferase reporter activity is inactive: -0.621 (compound concentration: 200 nM), inactive: -0.714 (compound concentration: 2 uM) and active: 7.93 (compound concentration: 10 uM).

Turning to `CN1[C@@H]2CC[C@H]1CC(OC(=O)[C@H](CO)c1ccccc1)C2` (some centres undefined) [Atropine sulfate], the TEAD-luciferase reporter activity (compound concentration: 200 nM) is inactive: -1.77, the TEAD-luciferase reporter activity (compound concentration: 2 uM) was inactive: 1.76 and the TEAD-luciferase reporter activity (compound concentration: 10 uM) is inactive: 1.53.

Regarding `CC1OC(OC2C(O)CC(OC3C(O)CC(OC4CCC5(C)C(CC[C@@H]6[C@@H]5CCC5(C)C(C7=CC(=O)OC7)C(O)CC65O)C4)OC3C)OC2C)CC(O)C1O` (some centres undefined), the TEAD-luciferase reporter activity was inactive: 0.25 (compound concentration: 200 nM), inactive: 0.934 (compound concentration: 2 uM) and active: 24.8 (compound concentration: 10 uM).

Turning to `ClCCN(Cc1ccccc1)Cc1ccccc1`, the TEAD-luciferase reporter activity (compound concentration: 200 nM) is inactive: -0.103, the TEAD-luciferase reporter activity (compound concentration: 2 uM) is inactive: 4.24 and the TEAD-luciferase reporter activity (compound concentration: 10 uM) was inactive: -1.33.

On to `CCC(C)C(C)(COC(N)=O)COC(N)=O` (centres undefined), for which the TEAD-luciferase reporter activity runs as follows: (compound concentration: 200 nM) inactive: -1.14; (compound concentration: 2 uM) inactive: -1.74; (compound concentration: 10 uM) inactive: 2.08.

On to `CCN(C(C)=O)c1cccc(-c2ccnc3c(C#N)cnn23)c1` [zaleplon GR], for which the TEAD-luciferase reporter activity (compound concentration: 2 uM) is inactive: -1.23.

For `CCN(C(C)=O)c1cccc(-c2ccnc3c(C#N)cnn23)c1`, the TEAD-luciferase reporter activity was inactive: -2.81 (compound concentration: 200 nM) and inactive: 0.748 (compound concentration: 10 uM).

`CCCC1(CNS(=O)(=O)C(F)(F)F)CCN(S(=O)(=O)c2cc3ccccc3n2S(=O)(=O)c2ccccn2)CC1`: the TEAD-luciferase reporter activity reads like this: (compound concentration: 200 nM) inactive: -1.19; (compound concentration: 2 uM) inactive: -0.73; (compound concentration: 10 uM) inactive: 2.87.

For `O=C1CCC2(CC1)OOC1(O2)C2CC3CC(C2)CC1C3` (centres undefined), the TEAD-luciferase reporter activity was inactive: -1.09 (compound concentration: 200 nM), inactive: 0.494 (compound concentration: 2 uM) and inactive: -0.773 (compound concentration: 10 uM).

In the case of `O=C1NCc2ccccc2CC12CCCCN2Cc1ccncc1` (centres undefined), the TEAD-luciferase reporter activity was inactive: -0.131 (compound concentration: 200 nM) and inactive: 2.67 (compound concentration: 10 uM).

As for `O=C(OCCN1CCCCC1)C(O)(c1ccccc1)c1ccccc1`, the TEAD-luciferase reporter activity (compound concentration: 200 nM) was inactive: -0.258, the TEAD-luciferase reporter activity (compound concentration: 2 uM) is inactive: -1.54 and the TEAD-luciferase reporter activity (compound concentration: 10 uM) was inactive: 0.0213.

Take `CN(C)CCc1c[nH]c2ccc(O)cc12`: the TEAD-luciferase reporter activity reads like this: (compound concentration: 200 nM) inactive: -0.986; (compound concentration: 2 uM) inactive: -1.05; (compound concentration: 10 uM) inactive: -0.00666.

For `OC1(c2ncccn2)CC2CCC(C1)N2C(c1ccccc1Cl)c1ccccc1Cl` (centres undefined), the TEAD-luciferase reporter activity was inactive: 0.00727 (compound concentration: 200 nM), inactive: 0.0255 (compound concentration: 2 uM) and inactive: 1.01 (compound concentration: 10 uM).

Consider `O=[N+]([O-])c1cc([As](=O)(O)O)ccc1O`, for which the TEAD-luciferase reporter activity reads like this: (compound concentration: 200 nM) inactive: -1.08; (compound concentration: 2 uM) inactive: -0.157; (compound concentration: 10 uM) inactive: 0.186.
